# Measured values taken from PubChem BioAssay AID493014 (National Center for Advancing Translational Sciences (NCATS), 2011).
# The list shows a part of the results. Shown are side measurements of this screen, not its main read-out; they come without a call. Compounds called inactive in the main read-out are mostly missing here. The note in brackets gives the kind of curve behind each potency; many fits are weak.
# Assay: qHTS Assay to Find Inhibitors of Chronic Active B-Cell Receptor Signaling
# Details: ABC-DLBCL IkBa-CBG/CBR reporter, luminescence ratio (green luciferase fused to IkBa over red control in TMD8 lymphoma cells), 4 h
# Procedure, shortened: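 Cell line TMD8 (human ABC DLBCL), stably expressing tet-inducible CBG68-IkBa fusion and CBR; IMDM/0.5% FBS; cpd up to 46 uM; dox induction, 4 h, 37C/5% CO2; dual luminescence; green/red ratio; MG132 control.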
# [1] = measured here: CBR red luminescence, cell number
# [2] = measured here: IkBa-CBG green luminescence
SMILES,AC50 [1],AC50 [2]
O=C(N/N=C/C=C\c1ccco1)c1ccccn1,"12.6 µM [falling, partial curve, poor fit]",–
COc1ccc(Oc2nccc(-c3ccccc3)c2C#N)cc1,"1.26 µM [rising, full curve, poor fit]",–
O=C(Nc1ccc2oc(-c3ccccc3)nc2c1)c1ccncc1,"0.708 µM [rising, full curve, poor fit]",–
CN1CCN(CC(=O)Nc2ccc(OC(F)(F)F)cc2)CC1,"22.4 µM [falling, single point]",–
C=CCNC(=S)NNC(=O)c1cccn(Cc2ccc(Cl)cc2)c1=O,"3.16 µM [falling, partial curve, poor fit]",–
Cc1ccc(-c2noc(CCC(=O)NCC3CCCO3)n2)cc1 (stereo not drawn),"29.1 µM [rising, single point]",–
O=C1c2ccccc2C(=O)N1CCCCCc1nc(-c2ccccc2)no1,"6.51 µM [rising, single point]",–
COc1ccc(C/C(C)=N/NC(=O)c2ccc(Cl)cc2)cc1,"17.8 µM [falling, partial curve, poor fit]",–
Fc1ccccc1SCc1nnc(-c2ccccc2Br)o1,"0.112 µM [rising, full curve, poor fit]",–
CCCc1ccc2oc(C(=O)NCc3nnc(C)o3)c(C)c2c1,"7.94 µM [rising, partial curve]",–
C[C@@]12CCC3[C@@](CCC4[C@@]3(C)CCC[C@@]4(C)C(=O)NCc3ccccc3)(CC1=O)C2 (stereo partly drawn),"29.1 µM [falling, single point]",–
COc1ccc(-c2nc(N)ncc2-c2ccc(Cl)cc2)c(O)c1,"8.91 µM [falling, partial curve, poor fit]",–
COC(=O)c1ccc(NC(=O)c2ccco2)cc1,"20 µM [falling, single point]",–
Cc1ccsc1-c1cc(C(=O)O)c2c(ccc3ccccc32)n1,"17.8 µM [falling, partial curve, poor fit]",–
c1ccc(-c2nc(Sc3ncnc4c3cnn4-c3ccccc3)n[nH]2)cc1,"10 µM [falling, partial curve]",–
O=C(COc1ncnc2c1cnn2-c1ccccc1)Nc1ccc(S(=O)(=O)N2CCCCC2)cc1,"1.03 µM [falling, full curve, poor fit]","23.1 µM [rising, partial curve, poor fit]"
C=CC[C@H]1CC(C)=C[C@H](CC=C)N1,"5.01 µM [rising, partial curve, poor fit]",–
O=C1c2cccnc2C(=O)N1Cc1ccc(S(=O)(=O)N2CCOc3ccc(Cl)cc32)cc1,"20 µM [falling, single point]",–
CCOc1ccc(C2=Nn3c(nnc3-c3cccnc3)SC2)cc1,"35.5 µM [falling, single point]",–
CCOc1ccc(-c2noc(COC)n2)cc1OC,"9.2 µM [rising, partial curve]",–
COc1ccc(CCC(C)N(C)Cc2ccccc2)cc1 (stereo not drawn),"31.6 µM [rising, single point]",–
Cc1onc(-c2ccccc2)c1NC(=O)Nc1ccc(OC(F)F)cc1,"7.08 µM [rising, partial curve, poor fit]",–

SMILES,AC50 [1],AC50 [2]
CN(C)c1ccc(NC(=O)/C=C/c2ccccc2Cl)cc1,"4.11 µM [falling, partial curve]",–
CC(=O)c1sc(N/N=C/c2cccc(O)c2)nc1C,"3.98 µM [falling, full curve, poor fit]",–
COC(=O)COc1cccc(NC(=O)c2cccc(C)c2)c1,"0.0891 µM [falling, full curve, poor fit]",–
O=C(c1ccccc1)c1n[nH]c(-c2ccccc2)cc1=O,"10 µM [falling, partial curve]",–
Fc1ccc(C2NCCn3cccc32)cc1 (stereo not drawn),"11.2 µM [falling, partial curve, poor fit]",–
CC(OC(=O)c1cccc(S(=O)(=O)N2CCN(C)CC2)c1)C(=O)Nc1ccc(C(N)=O)cc1 (stereo not drawn),"29.1 µM [rising, partial curve, poor fit]",–
COc1ccc(Cn2c(C)c(C)c(C#N)c2NC(=O)Nc2ccc(Cl)cc2)cc1,"35.5 µM [falling, single point]","35.5 µM [rising, partial curve, poor fit]"
COc1cccc(Cn2cc(-c3cccc(C(F)(F)F)c3)nn2)c1,"3.98 µM [rising, single point]",–
COc1ccc(CN2CCC(C(=O)N(C)CCc3ccc(OC)c(OC)c3)CC2)c(OC)c1,"2.31 µM [falling, partial curve, poor fit]",–
O=C(NN=C1CCCCCC1)c1c[nH]c2ccccc12,"9.2 µM [falling, partial curve, poor fit]",–
COc1cnc(SCc2ccc(Cl)cc2)nc1Cl,"4.47 µM [rising, partial curve, poor fit]",–
O=C(Nc1ccccc1-c1ccccc1)c1cccc([N+](=O)[O-])c1,"0.794 µM [rising, full curve, poor fit]",–
O=C(N/N=C/c1cccc(Oc2ccccc2)c1)c1ccccc1Br,"25.1 µM [falling, partial curve, poor fit]",–
O=C(c1ccccc1NS(=O)(=O)c1ccccc1[N+](=O)[O-])N1CCOCC1,"2.91 µM [rising, single point]",–
O=C(NCC(O)c1ccccc1)c1ccc(Cl)c(S(=O)(=O)N2CCCC2)c1 (stereo not drawn),"13 µM [falling, partial curve]",–
Cc1sc(NC(=O)c2ccccc2)c(C(=O)N2CCN(C)CC2)c1C,"9.2 µM [rising, partial curve]",–
C/C(=N\NC(=O)c1ccccc1)c1nc2ccccc2n1C,"13 µM [falling, partial curve, poor fit]",–
COc1ccc(-c2csc(-n3ncc(-c4cccs4)c3N)n2)cc1,"8.91 µM [rising, single point]",–
COc1ccc(-c2onc3ccc(Br)cc23)cc1,"20.6 µM [rising, partial curve, poor fit]",–
O=C(N/N=C/c1ccoc1)c1ccc(Cl)cc1,"8.91 µM [falling, partial curve, poor fit]",–
CCOC(=O)c1sc(Nc2nc(OC)cc(OC)n2)nc1C,"3.98 µM [falling, full curve, poor fit]",–
Cc1csc(N/N=C/c2ccc([N+](=O)[O-])cc2)n1,"1.26 µM [rising, full curve, poor fit]",–

# Molecules above that have fluorine, in the order listed:
SMILES,AC50 [1],AC50 [2]
CN1CCN(CC(=O)Nc2ccc(OC(F)(F)F)cc2)CC1,"22.4 µM [falling, single point]",–
Fc1ccccc1SCc1nnc(-c2ccccc2Br)o1,"0.112 µM [rising, full curve, poor fit]",–
Cc1onc(-c2ccccc2)c1NC(=O)Nc1ccc(OC(F)F)cc1,"7.08 µM [rising, partial curve, poor fit]",–
Fc1ccc(C2NCCn3cccc32)cc1 (stereo not drawn),"11.2 µM [falling, partial curve, poor fit]",–
COc1cccc(Cn2cc(-c3cccc(C(F)(F)F)c3)nn2)c1,"3.98 µM [rising, single point]",–

# Next structures.

SMILES,AC50 [1],AC50 [2]
Cc1ccc(C(=O)Nc2nccs2)cc1S(=O)(=O)N1CCCCC1,"6.31 µM [falling, full curve]",–
CCOc1ccc(C(=O)/C=C/c2ccc(OC)c(OC)c2)cc1,"22.4 µM [falling, single point]",–
COc1ccc(/C=N/Nc2snc(SC)c2C#N)cc1OC,"5.62 µM [falling, partial curve, poor fit]",–
O=C(c1cnn(-c2ccccc2)c1)c1ccc2ccccc2c1O,"1.41 µM [falling, full curve, poor fit]",–
COc1ccc(C(C)=O)c(OC(=O)c2ccco2)c1,"2.82 µM [rising, single point]",–
N#Cc1ccc(C(=O)Nc2cccc(NC(=O)c3ccco3)c2)c(F)c1,"7.08 µM [falling, partial curve]",–
C/C(=N\NC(=O)Cc1ccc(F)cc1)c1ccc(F)cc1,"4.61 µM [rising, full curve, poor fit]",–
CCCCNC(=O)N1CCN(c2ccnc3cc(Cl)ccc23)CC1,"25.1 µM [falling, single point]",–
COc1ccccc1C(=O)CSc1nccn1C,"14.1 µM [falling, single point]",–
CN1CCN(C(=O)CCN2C(=O)/C(=C\c3ccc(F)cc3)SC2=S)CC1,"23.1 µM [falling, single point]",–
CCc1cc(SC#N)cc(C)c1N,"3.55 µM [falling, single point]","20 µM [falling, partial curve, poor fit]"
O=C(COC(=O)c1ccccc1C(=O)N1CCN(c2ccccc2)CC1)Nc1ccc(F)cc1,"0.058 µM [falling, full curve, poor fit]",–
CC(C)Oc1cccc(C(=O)NC(=S)Nc2ccccc2)c1,"1.64 µM [rising, full curve, poor fit]",–
Cc1nc2ccccc2c2oc(C(=O)NCCCN3CCC(C)CC3)cc12,"14.1 µM [falling, single point]",–
COc1cc(C(=O)NC(=S)N(C)Cc2ccccc2)cc(OC)c1OC,–,"12.6 µM [falling, partial curve, poor fit]"
O=S(=O)(NC1CCCCC1N1CCN(c2ccccc2F)CC1)c1ccc(Cl)cc1 (stereo not drawn),"5.62 µM [rising, single point]",–
O=C(c1cc(F)ccc1F)C1CCCN(C(=O)c2ccc(F)cc2Cl)C1 (stereo not drawn),"0.708 µM [rising, full curve, poor fit]",–
CC(=O)N/C(N)=N/c1nc2cc(C)ccc2o1,"0.891 µM [rising, full curve, poor fit]",–
O=C(c1ccco1)N1CCN(c2ncnc3c2cnn3-c2ccccc2)CC1,"18.4 µM [falling, single point]",–
Cc1nc2sc(C(=O)c3ccccc3)c(N)c2c2c1CCCC2,"32.6 µM [falling, single point]",–
CNS(=O)(=O)c1cccc(C(=O)OCC(=O)N2c3ccccc3NC(=O)C2(C)C)c1,"23.1 µM [rising, single point]",–
